The target of assay [1] is CLEC14A with the C-type lectin domain (CTLD) deleted, N-terminal HA tag. Nature of the assay: far Western blot of lysates of transfected HEK293T cells, probed with MMRN2 protein lysate.
Assay [2] concerns the target ΔMucin 1. Described as above.
The target of assay [3] is CLEC14A with the sushi domain deleted, N-terminal HA tag. Described as above.
For assay [4], the target named is ΔMucin 2. Described as above.
The target of assay [5] is CLEC14A with the C-type lectin domain (CTLD) deleted, N-terminal HA tag. Nature of the assay: far Western blot with MMRN2 protein lysate, non-reduced.
Assay [6] has as its target CLEC14A with the sushi domain deleted, N-terminal HA tag. Described as above.

These are yes or no findings as the source states them, for the method shown. For part of these data: Binding can be weak; no strength is given.

This is an account of results in patent US20190085081A1.

B1: MMRN2 overexpressed in HEK293T cells (ligand, not shown: small tags and cut ends)
chain: QASSTSLSDLQSSRTPGVWKAEAEDTGKDPVGRNWCPYPMSKLVTLLALCKTEKFLIHSQQPCPQGAPDCQKVKVMYRMAHKPVYQVKQKVLTSLAWRCCPGYTGPNCEHHDSMAIPEPADPGDSHQEPQDGPVSFKPGHLAAVINEVEVQQEQQEHLLGDLQNDVHRVADSLPGLWKALPGNLTAAVMEANQTGHEFPDRSLEQVLLPHVDTFLQVHFSPIWRSFNQSLHSLTQAIRNLSLDVEANRQAISRVQDSAVARADFQELGAKFEAKVQENTQRVGQLRQDVEDRLHAQHFTLHRSISELQADVDTKLKRLHKAQEAPGTNGSLVLATPGAGARPEPDSLQARLGQLQRNLSELHMTTARREEELQYTLEDMRATLTRHVDEIKELYSESDETFDQISKVERQVEELQVNHTALRELRVILMEKSLIMEENKEEVERQLLELNLTLQHLQGGHADLIKYVKDCNCQKLYLDLDVIREGQRDATRALEETQVSLDERRQLDGSSLQALQNAVDAVSLAVDAHKAEGERARAATSRLRSQVQALDDEVGALKAAAAEARHEVRQLHSAFAALLEDALRHEAVLAALFGEEVLEEMSEQTPGPLPLSYEQIRVALQDAASGLQEQALGWDELAARVTALEQASEPPRPAEHLEPSHDAGREEAATTALAGLARELQSLSNDVKNVGRCCEAEAGAGAASLNASLDGLHNALFATQRSLEQHQRLFHSLFGNFQGLMEANVSLDLGKLQTMLSRKGKKQQKDLEAPRKRDKKEAEPLVDIRVTGPVPGALGAALWEAGSPVAFYASFSEGTAALQTVKFNTTYINIGSSYFPEHGYFRAPERGVYLFAVSVEFGPGPGTGQLVFGGHHRTPVCTTGQGSGSTATVFAMAELQKGERVWFELTQGSITKRSLSGTAFGGFLMFKT
Take B1: the binding entry is “no binding” in assay [1]; “binds” in assay [2]; “no binding” in assay [3]; “binds” in assay [4]; “no binding” in assay [5]; “no binding” in assay [6].
